Test results reported in the supplement of paper PMC10849652.
The list shows a part of the results.

The chains behind the UniProt entries cited, without tags or fusion partners. Where a name states a change or a piece, a line headed by the entry shows the natural chain unless it says otherwise.
UniProt P13489: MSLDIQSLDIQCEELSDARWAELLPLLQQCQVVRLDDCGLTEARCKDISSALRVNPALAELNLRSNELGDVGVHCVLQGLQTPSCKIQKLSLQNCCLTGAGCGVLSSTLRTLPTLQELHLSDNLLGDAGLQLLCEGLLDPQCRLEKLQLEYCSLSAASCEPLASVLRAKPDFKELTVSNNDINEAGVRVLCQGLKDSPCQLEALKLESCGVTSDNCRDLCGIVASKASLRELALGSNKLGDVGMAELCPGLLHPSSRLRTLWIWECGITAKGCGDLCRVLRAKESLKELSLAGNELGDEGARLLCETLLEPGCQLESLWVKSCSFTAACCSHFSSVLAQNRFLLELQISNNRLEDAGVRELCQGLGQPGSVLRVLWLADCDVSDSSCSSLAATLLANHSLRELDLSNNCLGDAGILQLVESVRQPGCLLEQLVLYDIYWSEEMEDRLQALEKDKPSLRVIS
UniProt P04843: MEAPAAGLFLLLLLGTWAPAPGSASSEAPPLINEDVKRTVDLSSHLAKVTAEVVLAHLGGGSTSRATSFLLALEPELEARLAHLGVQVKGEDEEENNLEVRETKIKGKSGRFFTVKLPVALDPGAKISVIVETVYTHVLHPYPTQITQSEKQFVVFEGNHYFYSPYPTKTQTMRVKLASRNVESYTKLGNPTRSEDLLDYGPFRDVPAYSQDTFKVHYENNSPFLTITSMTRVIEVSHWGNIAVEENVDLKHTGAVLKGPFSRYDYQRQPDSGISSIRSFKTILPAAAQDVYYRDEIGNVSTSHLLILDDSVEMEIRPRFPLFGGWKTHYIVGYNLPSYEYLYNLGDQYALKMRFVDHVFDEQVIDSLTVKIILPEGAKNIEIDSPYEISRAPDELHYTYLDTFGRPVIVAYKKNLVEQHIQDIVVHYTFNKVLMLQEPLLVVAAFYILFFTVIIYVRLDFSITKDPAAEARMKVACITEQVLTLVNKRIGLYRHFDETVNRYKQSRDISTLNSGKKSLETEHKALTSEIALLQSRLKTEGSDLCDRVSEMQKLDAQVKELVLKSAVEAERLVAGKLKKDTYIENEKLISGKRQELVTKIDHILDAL
UniProt P78346: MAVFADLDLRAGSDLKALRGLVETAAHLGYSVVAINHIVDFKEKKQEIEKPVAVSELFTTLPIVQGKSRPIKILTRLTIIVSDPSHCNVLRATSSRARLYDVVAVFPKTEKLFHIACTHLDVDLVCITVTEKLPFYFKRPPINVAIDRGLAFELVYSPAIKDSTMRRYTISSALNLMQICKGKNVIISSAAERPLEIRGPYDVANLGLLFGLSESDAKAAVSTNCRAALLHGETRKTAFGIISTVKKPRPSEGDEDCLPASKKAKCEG
UniProt P10155: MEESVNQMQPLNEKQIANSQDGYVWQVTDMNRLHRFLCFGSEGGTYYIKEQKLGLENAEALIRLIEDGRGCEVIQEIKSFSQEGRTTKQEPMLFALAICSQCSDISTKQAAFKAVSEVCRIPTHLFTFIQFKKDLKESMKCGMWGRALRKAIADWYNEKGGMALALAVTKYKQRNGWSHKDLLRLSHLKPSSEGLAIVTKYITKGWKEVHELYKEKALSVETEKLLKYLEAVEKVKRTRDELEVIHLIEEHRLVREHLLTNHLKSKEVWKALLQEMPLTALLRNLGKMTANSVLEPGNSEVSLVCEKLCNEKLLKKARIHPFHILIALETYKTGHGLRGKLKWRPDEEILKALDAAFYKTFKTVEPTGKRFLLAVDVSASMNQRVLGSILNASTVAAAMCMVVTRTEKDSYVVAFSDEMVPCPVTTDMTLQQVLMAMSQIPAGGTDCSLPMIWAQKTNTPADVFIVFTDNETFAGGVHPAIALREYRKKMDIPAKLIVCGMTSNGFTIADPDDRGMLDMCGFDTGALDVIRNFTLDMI
UniProt Q7LG56, whole entry, looked up: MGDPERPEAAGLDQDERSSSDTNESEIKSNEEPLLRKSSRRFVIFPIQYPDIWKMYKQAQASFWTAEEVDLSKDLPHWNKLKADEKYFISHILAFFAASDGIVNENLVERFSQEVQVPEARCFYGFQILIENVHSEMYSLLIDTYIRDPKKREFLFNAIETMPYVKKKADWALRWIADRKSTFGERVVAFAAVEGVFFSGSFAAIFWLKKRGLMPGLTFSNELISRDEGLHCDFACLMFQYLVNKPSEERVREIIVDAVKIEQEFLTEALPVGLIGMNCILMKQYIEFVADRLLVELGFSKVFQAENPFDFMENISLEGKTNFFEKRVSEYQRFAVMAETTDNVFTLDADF
UniProt O75695: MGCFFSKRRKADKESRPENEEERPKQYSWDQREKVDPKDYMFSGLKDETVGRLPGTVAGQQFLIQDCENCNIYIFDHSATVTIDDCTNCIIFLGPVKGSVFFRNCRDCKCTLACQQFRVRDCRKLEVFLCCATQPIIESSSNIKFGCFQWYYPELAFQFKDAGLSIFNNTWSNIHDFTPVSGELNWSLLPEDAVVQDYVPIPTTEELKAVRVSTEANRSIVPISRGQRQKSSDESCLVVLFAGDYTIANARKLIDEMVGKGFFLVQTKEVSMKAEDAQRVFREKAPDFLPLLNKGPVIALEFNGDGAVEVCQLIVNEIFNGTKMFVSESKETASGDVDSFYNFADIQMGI
UniProt O75818: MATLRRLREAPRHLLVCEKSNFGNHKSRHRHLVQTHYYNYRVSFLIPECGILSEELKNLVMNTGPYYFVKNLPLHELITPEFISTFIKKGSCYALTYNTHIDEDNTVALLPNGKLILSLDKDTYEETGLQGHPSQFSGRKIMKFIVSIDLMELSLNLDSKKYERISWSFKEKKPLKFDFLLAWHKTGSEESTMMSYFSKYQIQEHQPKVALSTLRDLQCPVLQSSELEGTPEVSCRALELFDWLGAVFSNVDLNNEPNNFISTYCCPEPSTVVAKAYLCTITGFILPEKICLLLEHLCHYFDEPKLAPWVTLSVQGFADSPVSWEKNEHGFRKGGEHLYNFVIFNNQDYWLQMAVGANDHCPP
UniProt Q86WX3: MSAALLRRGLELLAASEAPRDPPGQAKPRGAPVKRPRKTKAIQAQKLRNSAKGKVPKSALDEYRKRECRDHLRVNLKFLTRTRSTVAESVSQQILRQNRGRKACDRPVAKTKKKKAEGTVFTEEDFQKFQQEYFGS
UniProt Q9P2E9: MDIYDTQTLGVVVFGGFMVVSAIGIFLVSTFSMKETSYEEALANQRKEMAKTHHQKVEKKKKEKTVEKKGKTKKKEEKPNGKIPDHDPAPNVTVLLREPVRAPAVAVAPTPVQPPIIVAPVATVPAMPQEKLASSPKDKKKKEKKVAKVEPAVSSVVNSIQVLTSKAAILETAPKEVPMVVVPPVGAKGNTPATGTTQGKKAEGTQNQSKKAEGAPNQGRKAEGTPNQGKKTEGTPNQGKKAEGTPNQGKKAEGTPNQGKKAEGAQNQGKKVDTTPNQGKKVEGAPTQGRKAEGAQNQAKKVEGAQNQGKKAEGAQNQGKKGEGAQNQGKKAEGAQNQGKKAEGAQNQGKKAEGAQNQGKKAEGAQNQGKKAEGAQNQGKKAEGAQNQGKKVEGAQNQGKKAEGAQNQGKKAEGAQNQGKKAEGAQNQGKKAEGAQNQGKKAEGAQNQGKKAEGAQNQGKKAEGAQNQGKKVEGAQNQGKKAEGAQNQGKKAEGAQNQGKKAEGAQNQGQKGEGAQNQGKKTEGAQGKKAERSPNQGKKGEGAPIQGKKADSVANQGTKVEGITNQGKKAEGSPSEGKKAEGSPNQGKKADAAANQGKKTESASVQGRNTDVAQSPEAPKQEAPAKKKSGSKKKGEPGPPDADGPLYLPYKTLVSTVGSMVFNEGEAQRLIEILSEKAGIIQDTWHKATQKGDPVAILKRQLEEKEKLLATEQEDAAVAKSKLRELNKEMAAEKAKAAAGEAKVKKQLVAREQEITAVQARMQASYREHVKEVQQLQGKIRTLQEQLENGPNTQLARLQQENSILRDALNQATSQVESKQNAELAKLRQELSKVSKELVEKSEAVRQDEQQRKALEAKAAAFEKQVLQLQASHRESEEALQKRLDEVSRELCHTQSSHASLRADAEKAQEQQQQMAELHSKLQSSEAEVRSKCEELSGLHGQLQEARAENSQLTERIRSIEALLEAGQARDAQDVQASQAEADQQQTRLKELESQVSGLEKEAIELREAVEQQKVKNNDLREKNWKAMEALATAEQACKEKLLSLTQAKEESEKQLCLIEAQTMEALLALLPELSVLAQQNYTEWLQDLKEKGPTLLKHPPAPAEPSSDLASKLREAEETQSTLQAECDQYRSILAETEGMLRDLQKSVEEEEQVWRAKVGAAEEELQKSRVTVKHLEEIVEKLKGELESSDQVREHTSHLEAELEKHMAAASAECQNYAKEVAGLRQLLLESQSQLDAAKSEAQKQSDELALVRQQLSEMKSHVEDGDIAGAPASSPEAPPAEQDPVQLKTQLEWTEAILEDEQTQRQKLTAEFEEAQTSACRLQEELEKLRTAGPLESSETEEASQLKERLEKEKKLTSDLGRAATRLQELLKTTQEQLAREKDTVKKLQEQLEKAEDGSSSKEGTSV
UniProt P10301: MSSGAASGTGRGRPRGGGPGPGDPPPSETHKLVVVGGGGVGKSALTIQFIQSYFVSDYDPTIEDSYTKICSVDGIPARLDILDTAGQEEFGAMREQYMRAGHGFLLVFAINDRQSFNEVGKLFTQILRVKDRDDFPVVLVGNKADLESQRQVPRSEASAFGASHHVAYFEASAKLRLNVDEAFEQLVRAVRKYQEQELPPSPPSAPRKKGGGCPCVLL
UniProt O60942: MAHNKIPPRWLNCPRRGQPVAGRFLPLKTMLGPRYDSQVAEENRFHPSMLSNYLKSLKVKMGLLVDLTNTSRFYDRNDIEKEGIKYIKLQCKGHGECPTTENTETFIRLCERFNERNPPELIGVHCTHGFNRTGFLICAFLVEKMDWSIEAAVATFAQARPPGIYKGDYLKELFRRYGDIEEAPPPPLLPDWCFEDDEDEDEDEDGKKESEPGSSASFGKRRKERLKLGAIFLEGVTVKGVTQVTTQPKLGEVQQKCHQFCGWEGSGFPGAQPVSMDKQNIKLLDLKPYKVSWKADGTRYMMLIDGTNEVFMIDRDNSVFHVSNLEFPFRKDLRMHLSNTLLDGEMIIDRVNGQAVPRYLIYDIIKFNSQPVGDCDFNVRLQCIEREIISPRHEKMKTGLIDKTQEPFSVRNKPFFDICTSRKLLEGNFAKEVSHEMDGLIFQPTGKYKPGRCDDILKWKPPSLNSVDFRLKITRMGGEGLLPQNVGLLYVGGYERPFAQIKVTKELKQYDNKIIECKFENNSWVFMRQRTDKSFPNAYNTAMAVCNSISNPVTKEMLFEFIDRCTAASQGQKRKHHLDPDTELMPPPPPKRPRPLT
UniProt Q9H6T3, whole entry, looked up: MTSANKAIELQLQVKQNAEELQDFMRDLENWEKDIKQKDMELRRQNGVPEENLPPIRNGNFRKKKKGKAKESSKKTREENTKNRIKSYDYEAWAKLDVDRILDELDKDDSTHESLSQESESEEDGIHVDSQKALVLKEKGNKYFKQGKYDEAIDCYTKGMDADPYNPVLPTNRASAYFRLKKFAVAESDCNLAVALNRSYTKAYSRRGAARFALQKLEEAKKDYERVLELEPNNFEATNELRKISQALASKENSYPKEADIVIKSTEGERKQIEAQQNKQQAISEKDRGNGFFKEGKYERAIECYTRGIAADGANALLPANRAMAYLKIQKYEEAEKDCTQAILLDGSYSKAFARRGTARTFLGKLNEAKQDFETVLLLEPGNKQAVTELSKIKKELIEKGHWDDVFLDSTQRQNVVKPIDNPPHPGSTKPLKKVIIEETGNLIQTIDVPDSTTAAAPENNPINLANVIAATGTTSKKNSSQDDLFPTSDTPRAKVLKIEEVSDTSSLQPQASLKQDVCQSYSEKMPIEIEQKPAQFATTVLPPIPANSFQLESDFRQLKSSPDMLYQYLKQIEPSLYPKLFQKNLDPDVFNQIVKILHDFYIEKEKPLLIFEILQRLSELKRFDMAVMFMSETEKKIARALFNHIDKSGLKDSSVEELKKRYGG
UniProt Q92901: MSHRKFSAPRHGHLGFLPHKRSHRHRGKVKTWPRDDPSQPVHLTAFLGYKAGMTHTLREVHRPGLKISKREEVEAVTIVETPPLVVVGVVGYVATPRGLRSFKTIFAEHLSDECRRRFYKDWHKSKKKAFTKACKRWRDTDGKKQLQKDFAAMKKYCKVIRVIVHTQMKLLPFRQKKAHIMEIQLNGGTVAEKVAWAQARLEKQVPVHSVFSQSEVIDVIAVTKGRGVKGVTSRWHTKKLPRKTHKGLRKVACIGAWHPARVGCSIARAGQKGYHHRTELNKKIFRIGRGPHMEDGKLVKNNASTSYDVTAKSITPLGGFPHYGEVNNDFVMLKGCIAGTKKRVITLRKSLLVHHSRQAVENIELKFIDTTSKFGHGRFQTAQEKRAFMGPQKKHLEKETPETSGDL

compound: COc1cccc2cc(-c3nc([C@H]4CC[C@H](C(=O)O)CC4)n4ncnc(N)c34)[nH]c12; test: log2 fold change, soluble protein after heating vs DMSO (PISA); higher = thermal stabilisation; K562 cells, 10 uM, 30 min; active = over 0.2 and 3.5 SD of the protein, either way, in both replicates (recomputed)
How it was run: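 Soluble protein was quantified by TMTpro 16plex LC-MS/MS after channel sums were equalised. It was obtained as the supernatant after 21,000xg for 90 min from pooled aliquots of K562 cells (2×10^6 cells/mL, 10 μM compound, 30 min) heated for 3 min across 48°C-58°C and extracted in PBS with 0.5% NP-40 at 4°C. Thermal stability values are relative to control samples and come from duplicates. They are given as log2 fold changes.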

log2 fold change, inactive:
RPL9 (UniProt P32969) -0.46
RNH1 (UniProt P13489) -0.012
RPL24 (UniProt P83731) -0.387
RPS17 (UniProt P08708) -0.118
RPL17 isoform 3 (UniProt P18621) -0.271
RPN1 (UniProt P04843) 0.025
RPP30 isoform 2 (UniProt P78346) 0.007
RPL15 (UniProt P61313) -0.39
RO60 (UniProt P10155) 0.042
RRM2B isoform 6 (UniProt Q7LG56) 0.07
RP2 (UniProt O75695) 0.038
RPP40 (UniProt O75818) -0.014
RPL36 (UniProt Q9Y3U8) -0.355
RPL11 (UniProt P62913) -0.442
RPL13 (UniProt P26373) -0.357
RNF25 (UniProt Q96BH1) 0.05
RPL8 (UniProt P62917) -0.408
RPS27 (UniProt P42677) -0.097
RPS19BP1 (UniProt Q86WX3) -0.304
RPL35 (UniProt P42766) -0.315
RPS10 (UniProt P46783) -0.15
RRBP1 (UniProt Q9P2E9) -0.203
RPL22 (UniProt P35268) -0.156
RPS6 (UniProt P62753) -0.342
RRAS (UniProt P10301) 0.047
RPL7 (UniProt P18124) -0.477
RPL13A (UniProt P40429) -0.453
RPL26 (UniProt P61254) -0.558
RPS29 (UniProt P62273) -0.382
RNGTT (UniProt O60942) 0.062
RPAP3 (UniProt Q9H6T3) -0.105
RPL3L (UniProt Q92901) -0.549

Reprinted at random: 2 entries already listed.
log2 fold change, inactive:
RPL11 (UniProt P62913) -0.442
RNH1 (UniProt P13489) -0.012
